The other results are listed elsewhere or left out.
How the values were obtained:
Test in all cases: log2 fold change, soluble protein after heating vs DMSO (PISA); higher = thermal stabilisation; K562 cells, 10 uM, 30 min; active = over 0.2 and 3.5 SD of the protein, either way, in both replicates (recomputed)
[1] = compound: C1=CC=C(C=C1)[C@H](COC2=CC3=C(C=C2)NC(=O)N3)NC(=O)C4=CC=CN(C4=O)CC5=CC(=C(C=C5)F)F
Procedure, shortened: (§1)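 K562 cells (2×10^6 cells/mL) were treated with 10 μM compound for 30 min, and aliquots were heated for 3 min over 48°C-58°C. Pooled aliquots were extracted in PBS with 0.5% NP-40 at 4°C, and the supernatant after 21,000xg for 90 min was measured by TMTpro 16plex LC-MS/MS with channel sums equalised. Reported thermal stability, relative to control samples and from duplicates, is a log2 fold change.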

Amino acid sequences for entries named in this document (tags omitted). A change or cut given only in a name is not applied to a line headed by its entry.
UniProt Q9UGP8: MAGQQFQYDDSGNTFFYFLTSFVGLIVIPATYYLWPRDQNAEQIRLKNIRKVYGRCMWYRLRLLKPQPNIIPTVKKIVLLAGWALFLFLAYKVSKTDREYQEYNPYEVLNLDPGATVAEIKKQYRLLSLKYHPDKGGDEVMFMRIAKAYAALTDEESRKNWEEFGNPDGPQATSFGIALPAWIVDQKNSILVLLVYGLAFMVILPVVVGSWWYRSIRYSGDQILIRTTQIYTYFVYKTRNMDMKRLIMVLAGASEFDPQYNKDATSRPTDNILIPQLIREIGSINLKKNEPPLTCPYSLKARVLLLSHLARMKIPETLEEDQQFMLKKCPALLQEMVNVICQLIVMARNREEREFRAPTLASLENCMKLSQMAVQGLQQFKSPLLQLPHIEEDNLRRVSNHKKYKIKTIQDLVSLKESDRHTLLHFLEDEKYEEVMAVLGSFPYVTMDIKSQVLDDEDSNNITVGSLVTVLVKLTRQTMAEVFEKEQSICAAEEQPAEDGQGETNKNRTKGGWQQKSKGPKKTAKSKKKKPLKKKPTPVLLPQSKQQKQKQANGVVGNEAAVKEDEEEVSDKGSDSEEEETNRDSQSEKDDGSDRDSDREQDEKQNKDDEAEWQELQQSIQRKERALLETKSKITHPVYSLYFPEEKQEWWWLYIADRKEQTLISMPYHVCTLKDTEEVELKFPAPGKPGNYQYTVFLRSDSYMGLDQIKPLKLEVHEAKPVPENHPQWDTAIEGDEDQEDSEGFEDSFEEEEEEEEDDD
UniProt Q9UBV2: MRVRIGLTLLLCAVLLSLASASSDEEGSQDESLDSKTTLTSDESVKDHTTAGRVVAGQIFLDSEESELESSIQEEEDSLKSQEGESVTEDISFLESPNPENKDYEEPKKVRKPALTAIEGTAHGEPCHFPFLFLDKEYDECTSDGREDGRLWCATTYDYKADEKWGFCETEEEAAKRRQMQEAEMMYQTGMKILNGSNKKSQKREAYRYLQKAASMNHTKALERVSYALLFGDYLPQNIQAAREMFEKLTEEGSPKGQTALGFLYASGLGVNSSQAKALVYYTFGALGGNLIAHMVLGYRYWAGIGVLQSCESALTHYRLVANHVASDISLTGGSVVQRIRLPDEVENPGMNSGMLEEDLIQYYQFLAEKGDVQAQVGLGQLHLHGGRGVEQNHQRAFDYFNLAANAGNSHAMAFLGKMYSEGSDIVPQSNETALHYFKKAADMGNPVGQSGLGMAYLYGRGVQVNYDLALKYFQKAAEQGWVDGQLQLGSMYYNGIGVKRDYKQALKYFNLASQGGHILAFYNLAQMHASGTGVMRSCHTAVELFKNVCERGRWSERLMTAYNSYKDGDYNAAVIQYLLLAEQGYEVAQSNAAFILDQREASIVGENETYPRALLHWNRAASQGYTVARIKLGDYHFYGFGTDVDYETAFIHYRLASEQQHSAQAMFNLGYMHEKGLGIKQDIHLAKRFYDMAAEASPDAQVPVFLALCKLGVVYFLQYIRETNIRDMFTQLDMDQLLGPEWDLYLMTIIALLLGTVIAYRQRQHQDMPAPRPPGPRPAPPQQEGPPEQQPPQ
UniProt Q9NVA2: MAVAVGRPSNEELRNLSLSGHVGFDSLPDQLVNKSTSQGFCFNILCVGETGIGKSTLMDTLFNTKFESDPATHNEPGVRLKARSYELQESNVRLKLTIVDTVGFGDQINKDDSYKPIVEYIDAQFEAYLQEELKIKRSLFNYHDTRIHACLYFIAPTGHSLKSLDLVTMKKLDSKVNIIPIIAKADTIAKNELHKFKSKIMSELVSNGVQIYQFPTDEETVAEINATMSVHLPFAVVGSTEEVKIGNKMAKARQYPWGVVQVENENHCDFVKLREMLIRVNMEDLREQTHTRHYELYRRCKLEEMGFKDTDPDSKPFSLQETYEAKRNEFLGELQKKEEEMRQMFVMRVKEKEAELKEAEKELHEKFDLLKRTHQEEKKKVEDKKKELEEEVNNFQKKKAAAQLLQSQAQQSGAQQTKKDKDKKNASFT
UniProt Q9H299: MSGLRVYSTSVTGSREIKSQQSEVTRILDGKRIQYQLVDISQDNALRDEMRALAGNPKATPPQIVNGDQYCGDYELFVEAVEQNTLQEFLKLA
UniProt Q9UJC5: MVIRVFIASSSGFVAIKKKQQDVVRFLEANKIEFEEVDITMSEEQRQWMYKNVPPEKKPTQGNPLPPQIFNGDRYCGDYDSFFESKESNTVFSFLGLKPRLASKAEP
UniProt Q15464: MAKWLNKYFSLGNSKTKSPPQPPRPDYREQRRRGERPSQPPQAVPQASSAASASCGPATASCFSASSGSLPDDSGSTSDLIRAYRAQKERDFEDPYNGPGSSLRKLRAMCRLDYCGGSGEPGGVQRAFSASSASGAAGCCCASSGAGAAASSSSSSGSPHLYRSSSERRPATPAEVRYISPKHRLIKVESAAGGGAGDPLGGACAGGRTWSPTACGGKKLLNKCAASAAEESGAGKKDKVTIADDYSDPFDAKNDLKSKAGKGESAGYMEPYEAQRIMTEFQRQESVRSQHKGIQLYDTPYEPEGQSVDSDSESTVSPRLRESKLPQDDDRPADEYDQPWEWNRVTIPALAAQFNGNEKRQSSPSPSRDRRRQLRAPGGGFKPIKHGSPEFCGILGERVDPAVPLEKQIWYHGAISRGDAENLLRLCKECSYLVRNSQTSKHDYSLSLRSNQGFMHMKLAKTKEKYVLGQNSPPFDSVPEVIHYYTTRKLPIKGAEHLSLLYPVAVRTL
UniProt Q16181: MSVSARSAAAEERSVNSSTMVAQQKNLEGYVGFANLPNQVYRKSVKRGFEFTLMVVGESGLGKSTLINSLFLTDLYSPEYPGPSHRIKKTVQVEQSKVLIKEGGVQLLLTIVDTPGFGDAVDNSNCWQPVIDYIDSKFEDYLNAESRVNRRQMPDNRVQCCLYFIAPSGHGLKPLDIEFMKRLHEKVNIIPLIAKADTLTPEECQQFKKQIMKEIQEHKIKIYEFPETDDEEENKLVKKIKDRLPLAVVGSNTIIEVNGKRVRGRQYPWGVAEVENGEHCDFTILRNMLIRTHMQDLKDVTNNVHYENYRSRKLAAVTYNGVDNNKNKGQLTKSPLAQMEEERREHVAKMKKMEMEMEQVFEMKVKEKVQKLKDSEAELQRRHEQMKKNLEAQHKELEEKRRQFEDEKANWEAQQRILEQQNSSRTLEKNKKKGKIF
UniProt Q93073: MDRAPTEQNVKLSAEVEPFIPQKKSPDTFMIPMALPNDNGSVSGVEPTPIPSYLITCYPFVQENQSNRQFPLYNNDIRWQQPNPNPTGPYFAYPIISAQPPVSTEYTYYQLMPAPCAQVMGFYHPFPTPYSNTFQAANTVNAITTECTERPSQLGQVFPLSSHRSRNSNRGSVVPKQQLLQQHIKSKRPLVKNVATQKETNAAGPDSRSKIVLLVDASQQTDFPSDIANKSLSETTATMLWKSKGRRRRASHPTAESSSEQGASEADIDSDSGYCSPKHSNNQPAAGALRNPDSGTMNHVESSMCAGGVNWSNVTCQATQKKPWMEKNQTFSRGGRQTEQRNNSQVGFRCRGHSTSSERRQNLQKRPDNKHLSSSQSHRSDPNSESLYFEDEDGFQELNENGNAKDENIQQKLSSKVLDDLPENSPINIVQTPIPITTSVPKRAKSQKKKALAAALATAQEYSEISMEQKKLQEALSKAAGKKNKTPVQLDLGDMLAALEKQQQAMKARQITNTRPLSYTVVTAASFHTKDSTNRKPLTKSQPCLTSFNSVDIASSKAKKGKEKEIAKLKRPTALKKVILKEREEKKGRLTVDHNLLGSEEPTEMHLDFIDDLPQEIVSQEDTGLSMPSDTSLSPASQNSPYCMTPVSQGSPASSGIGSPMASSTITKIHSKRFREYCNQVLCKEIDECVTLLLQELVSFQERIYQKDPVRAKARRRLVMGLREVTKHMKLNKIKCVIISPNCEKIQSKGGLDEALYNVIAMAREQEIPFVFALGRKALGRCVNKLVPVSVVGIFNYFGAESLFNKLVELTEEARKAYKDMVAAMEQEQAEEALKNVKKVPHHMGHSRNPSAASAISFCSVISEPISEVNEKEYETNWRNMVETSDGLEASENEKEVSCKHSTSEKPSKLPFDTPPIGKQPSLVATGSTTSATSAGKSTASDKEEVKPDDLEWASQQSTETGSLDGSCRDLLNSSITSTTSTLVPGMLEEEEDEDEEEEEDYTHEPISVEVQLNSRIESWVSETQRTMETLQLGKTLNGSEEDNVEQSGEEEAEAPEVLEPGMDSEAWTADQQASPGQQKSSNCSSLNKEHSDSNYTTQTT
UniProt O75563, whole entry, looked up: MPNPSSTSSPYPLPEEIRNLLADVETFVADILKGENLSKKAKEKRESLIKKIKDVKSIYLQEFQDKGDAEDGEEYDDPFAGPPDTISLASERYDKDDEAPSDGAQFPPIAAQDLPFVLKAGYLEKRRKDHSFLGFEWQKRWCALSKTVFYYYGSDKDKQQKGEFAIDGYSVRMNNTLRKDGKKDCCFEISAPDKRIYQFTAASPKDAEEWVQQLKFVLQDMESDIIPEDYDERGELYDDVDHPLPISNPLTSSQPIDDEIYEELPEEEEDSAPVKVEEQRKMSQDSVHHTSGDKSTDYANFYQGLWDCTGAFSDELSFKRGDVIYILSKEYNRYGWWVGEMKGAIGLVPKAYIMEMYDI
UniProt P05155: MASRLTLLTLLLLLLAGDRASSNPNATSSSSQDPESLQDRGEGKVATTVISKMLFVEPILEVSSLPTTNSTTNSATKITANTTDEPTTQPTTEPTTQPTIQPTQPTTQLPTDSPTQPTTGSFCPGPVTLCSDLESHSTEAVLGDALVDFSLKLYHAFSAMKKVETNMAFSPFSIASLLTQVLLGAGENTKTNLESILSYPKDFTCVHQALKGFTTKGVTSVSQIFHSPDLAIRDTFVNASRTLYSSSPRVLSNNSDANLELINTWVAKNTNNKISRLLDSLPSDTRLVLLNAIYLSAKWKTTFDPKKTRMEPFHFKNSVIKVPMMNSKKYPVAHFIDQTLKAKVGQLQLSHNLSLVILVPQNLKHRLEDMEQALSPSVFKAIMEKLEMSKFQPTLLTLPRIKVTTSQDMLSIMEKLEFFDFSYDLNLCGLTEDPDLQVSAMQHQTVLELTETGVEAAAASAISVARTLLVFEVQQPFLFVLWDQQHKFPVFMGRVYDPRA
UniProt P62341, whole entry, looked up: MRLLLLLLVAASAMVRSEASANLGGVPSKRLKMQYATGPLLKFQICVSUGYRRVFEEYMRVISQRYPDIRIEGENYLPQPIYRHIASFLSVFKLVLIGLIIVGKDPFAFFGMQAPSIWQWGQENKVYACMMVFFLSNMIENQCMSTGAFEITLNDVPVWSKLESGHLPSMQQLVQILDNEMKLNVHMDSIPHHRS

[2] = compound: CC1=C(SC2=C1C(=N[C@H](C3=NN=C(N32)C)CC(=O)N)C4=CC=C(C=C4)Cl)C
Procedure, shortened: as §1

[3] = compound: CC1=C2C(=CC=C1)N=C(N(C2=O)C3=CC=CC=C3C)CN4C=NC5=C(N=CN=C54)N
Procedure, shortened: as §1

[4] = compound: Cc1sc2c(c1C)C(c1ccc(Cl)cc1)=N[C@@H](CC(=O)OC(C)(C)C)c1nnc(C)n1-2
Procedure, shortened: as §1

[5] = compound: c1ccc([C@@H]2C[C@H]2NC2CCNCC2)cc1
Procedure, shortened: as §1

Measured: log2 fold change

SEC63 (UniProt Q9UGP8)
inactive: [1] -0.006 | [2] 0.063 | [3] 0.032 | [4] -0.029 | [5] -0.012

SEL1L (UniProt Q9UBV2)
inactive: [1] -0.035 | [2] -0.008 | [3] 0.009 | [4] -0.005 | [5] -0.006

SEPTIN11 isoform 2 (UniProt Q9NVA2)
inactive: [1] 0.028 | [2] 0.024 | [3] 0.007 | [4] -0.02 | [5] 0

Looked up one by one from the entries so far, two records:
SEPTIN11 isoform 2 (UniProt Q9NVA2)
inactive: [1] 0.028 | [2] 0.024 | [3] 0.007 | [4] -0.02 | [5] 0

SEL1L (UniProt Q9UBV2)
inactive: [1] -0.035 | [2] -0.008 | [3] 0.009 | [4] -0.005 | [5] -0.006

The listing continues:

SH3BGRL3 (UniProt Q9H299)
inactive: [1] 0.022 | [2] 0.102 | [3] 0.051 | [4] -0.077 | [5] -0.026

SH3BGRL2 (UniProt Q9UJC5)
inactive: [1] 0.071 | [2] 0.101 | [3] -0.004 | [4] -0.018 | [5] -0.129

SHB (UniProt Q15464)
inactive: [1] -0.121 | [2] -0.125 | [4] -0.138 | [5] 0.051

SEPTIN7 isoform 2 (UniProt Q16181)
inactive: [4] 0.094

SECISBP2L (UniProt Q93073)
inactive: [3] -0.168

SHROOM4 (UniProt Q9ULL8)
inactive: [2] -0.253 | [3] -0.188 | [5] 0.12

SKAP2 (UniProt O75563)
inactive: [4] -0.037

SERPING1 isoform 3 (UniProt P05155)
inactive: [2] -0.126 | [4] -0.015 | [5] 0.113

SELENOT (UniProt P62341)
inactive: [1] -0.024 | [3] 0.183 | [4] -0.084

From the supplement of paper PMC10849652
